Assay results: PMC10163288
The other results are listed elsewhere or left out.

B1: il10ra_site1_sap_26_mot_65b8060e20531850bca9f2e11f97d954_0001_af2_000000137_0001_17_31_H_._HHH_b2_02577_0001_0000200010_0000001_0_0001 (protein)
chain: SSSSDLEEIWELIRKAMELARQGNLEEAERLIREALEIAEEAGNRAMQHQLKMVLEDLEERSSSS
B2: il10ra_site1_sap_24_mot_HHH_b1_06816_000000239_0001_1_19_H_._HHH_b1_06343_0001_0000100003_0000003_0_0001_af2pred_0001 (protein)
chain: SSSSSEVVQEVIRLIRKALELLANGNPEEAEEVLKEAKELAEEGNNLTLKFSIEAAERAINSSSS
B3: il10ra_site1_normal_mot_HHH_b2_03328_af2_000000127_0001_1_19_H_._HHH_b2_04646_af2_0001_0000100005_0000002_0_af2pred_0001 (protein)
chain: SSSSDEEEERLRELEEQRERAKEEGDEEKFARLAVELSRLLAQAGNYEEARRLAKELARISSSSS
B4: il10ra_site1_normal_mot_HHH_b1_07527_000000076_0001_1_15_H_._HHH_b2_04719_af2_0001_0000100001_0000001_0_af2pred_0001 (protein)
chain: SSSSSSSEAEEIVRLIREALRIEDEEEAREILEEALELAEKANNFAAFFAAEHLLKILSSSSSSS
B5: il10ra_site1_sap_26_mot_HHH_b1_05185_000000011_0001_22_39_H_._HHH_b1_08225_0002_0000200012_0000001_0_0001 (protein)
chain: SSSSDEDFELARRFIELVIELLRRGNKEEAQEVLKELEELAEETNNPILRHLLELLQRQLKSSSS
B6: il10ra_site1_sap_12_mot_HHH_b1_02062_000000185_0001_1_20_H_._HHH_b2_04276_0001_0000100009_0000002_0_0001 (protein)
chain: SSSSSDTDEAFRRVLELMEEARHVSEEEAEKLLEEAKELAEEANSEYLLRAVEYLERDETSSSSS
B7: il10ra_site1_normal_mot_HHH_b1_01879_000000050_0001_1_18_H_._HHH_b2_02257_0001_0000300009_0000002_0_af2pred_dldesign_0_af2pred (protein)
chain: SSSSDPEVDKAAFEAKVKAYQLGDEETLRRLAELSHQVKLTKDPELKKELYELAKSLLDEISSSS
B8: il10ra_site1_sap_17_mot_HHH_b2_00475_000000002_0001_44_57_H_._HHH_b2_01636_0001_0000300020_0000001_0_0001 (protein)
chain: DEEELERLLREAGVPPELIRLVRLSFKRLKEQGSPPETVLRALLMVVRAMGDPRASEVLEELLER
B9: il10ra_site1_normal_mot_HHH_b2_02337_000000026_0001_38_52_H_._HHH_b1_01460_af2_0001_0000100008_0000002_0 (protein)
chain: SSSSDEEEELKRLIEELEELLERNDEERFARVAQRASQLALESGNAELLKVIWELVQRLRSSSSS
B10: il10ra_site1_normal_mot_HHH_b1_02397_af2_000000085_0001_39_57_H_._HHH_b1_03194_0001_0000100004_0000002_0 (protein)
chain: SSSSSSDVEELLERLEELLEEGNHEEAARLLQEALRHAFRNSDPELLKELHEFAKRLASSSSSSS
B11: il10ra_site1_normal_mot_HHH_b1_07211_af2_000000161_0001_24_40_H_._HHH_b2_07834_af2_0001_0000500039_0000001_0 (protein)
chain: SSSSDEEHRELAELLREIMEAYRRGDPEEVEELLELLEELAKKLNDEQARWLVELFREALSSSSS
B12: il10ra_site1_sap_26_mot_HHH_b2_06864_af2_000000190_0001_1_20_H_._HHH_b2_05072_0001_0000200020_0000001_0_0001 (protein)
chain: SSSSSSEEVEELLKEAEELYERGDHEKVIEVLQRAVRAAYELKDPELLQAVWRLVHELVSSSSSS
B13: il10ra_site1_sap_26_mot_HHH_b2_03220_af2_000000223_0001_23_40_H_._HHH_b1_06492_af2_0001_0000400018_0000001_0_0001 (protein)
chain: SSSSDAEERARELLEEAEELLEEGDRERFARVVQEALRVAFQASDEEILQALWRLMKSLQSSSSS
B14: il10ra_site1_normal_mot_HHH_b1_07835_af2_000000063_0001_1_16_H_._HHH_b2_02304_0001_0000300026_0000001_1_af2pred_0001 (protein)
chain: SSSSDEEIRERIEELLEEAKHIENEREVAELLAEASRLALRLRDPELARLVDEVAIEINLSSSSS
B15: il10ra_site1_sap_20_mot_HHH_b2_00479_000000091_0001_1_12_H_._HHH_b1_00442_0001_0000200009_0000002_0_0001_af2pred_0001 (protein)
chain: SSSSSRDERALKRLKRSAELAAERGDPKAAKIALRFAKLLAELLNDEELLREIEKLLEELSSSSS
B16: il10ra_site1_sap_30_mot_HHH_b2_03590_000000030_0001_43_56_H_._HHH_b1_00902_0001_0000400038_0000001_0_0001_af2pred_0001 (protein)
chain: SSSSSDEELLRLAIRFAKFLEEEGDPEAAKFILEAAIELARKAGDEELLEEAERVLEELDSSSSS
B17: il10ra_site1_normal_mot_HHH_b2_00800_af2_000000047_0001_1_20_H_._HHH_b1_00120_0001_0000100007_0000001_0 (protein)
chain: SSSSQEEYEFVRKVIEEVLELIRKGDPEEAERLLEEAEQFLRELGDELRLLQIEHLLRLLRSSSS
B18: il10ra_site1_sap_10_mot_21555af6df39fbf105a98f94538c59b3_0001_af2_000000275_0001_17_30_H_._HHH_b2_01902_0001_0000400011_0000002_0_0001_af2pred_0001 (protein)
chain: SSSSSDEEAVRLFLEAAKLIEDPERRKRALRFAEFLAKEANNPELEKLVEEVKEELEEKSSSSSS

Molecular target: il10ra, Q13651
Assay: yeast display titration

**Q.** For B1, which “apparent Kd” value is on record?
**A.** inactive: no binding seen

**Q.** How did the “apparent Kd” value turn out when B2 was run?
**A.** inactive: no binding seen

**Q.** How did the “apparent Kd” value turn out when B3 was run?
**A.** inactive: no binding seen

**Q.** For B4, which “apparent Kd” value is on record?
**A.** inactive: no binding seen

**Q.** How did the “apparent Kd” value turn out when B5 was run?
**A.** inactive: no binding seen

**Q.** How did the “apparent Kd” value turn out when B6 was run?
**A.** inactive: no binding seen

**Q.** With B7 as the binder, how does the “apparent Kd” value read?
**A.** inactive: no binding seen

**Q.** Which “apparent Kd” value does the source give for B8 here?
**A.** inactive: no binding seen

**Q.** How did the “apparent Kd” value turn out when B9 was run?
**A.** inactive: no binding seen

**Q.** B10 was tested. Which “apparent Kd” value did it give?
**A.** inactive: no binding seen

**Q.** B11 was tested. Which “apparent Kd” value did it give?
**A.** inactive: no binding seen

**Q.** B12 was tested. Which “apparent Kd” value did it give?
**A.** inactive: no binding seen

**Q.** How did the “apparent Kd” value turn out when B13 was run?
**A.** inactive: no binding seen

**Q.** Which “apparent Kd” value does the source give for B14 here?
**A.** inactive: no binding seen

**Q.** How did the “apparent Kd” value turn out when B15 was run?
**A.** inactive: no binding seen

**Q.** How did the “apparent Kd” value turn out when B16 was run?
**A.** inactive: no binding seen

**Q.** For B17, which “apparent Kd” value is on record?
**A.** inactive: no binding seen

**Q.** B18 was tested. Which “apparent Kd” value did it give?
**A.** inactive: no binding seen
